Source: publication PMC12221994
These are yes or no findings as the source states them, for the method shown. Binding calls can cover weak binding; strength is not graded here.

Biological target: RAP1 (human) (UniProt Q9NYB0)

binding: binds
Substance: TRF2(ΔBΔTRFH) (human) (domain or fragment)
